According to the supplement of paper PMC10849652:
The other results are listed elsewhere or left out.

Sequences of proteins named here, by UniProt entry; tags and fusion partners are left off. A change or cut given only in a name is not applied to a line headed by its entry.
UniProt Q9H079: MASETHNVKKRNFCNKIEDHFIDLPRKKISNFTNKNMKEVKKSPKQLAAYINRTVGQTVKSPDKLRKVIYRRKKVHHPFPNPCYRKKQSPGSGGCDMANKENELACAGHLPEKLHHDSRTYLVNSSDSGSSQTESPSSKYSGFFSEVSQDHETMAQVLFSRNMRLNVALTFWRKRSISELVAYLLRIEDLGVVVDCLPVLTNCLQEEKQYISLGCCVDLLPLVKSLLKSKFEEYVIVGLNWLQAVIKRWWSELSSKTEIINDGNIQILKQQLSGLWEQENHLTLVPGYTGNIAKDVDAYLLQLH
UniProt Q9BW62: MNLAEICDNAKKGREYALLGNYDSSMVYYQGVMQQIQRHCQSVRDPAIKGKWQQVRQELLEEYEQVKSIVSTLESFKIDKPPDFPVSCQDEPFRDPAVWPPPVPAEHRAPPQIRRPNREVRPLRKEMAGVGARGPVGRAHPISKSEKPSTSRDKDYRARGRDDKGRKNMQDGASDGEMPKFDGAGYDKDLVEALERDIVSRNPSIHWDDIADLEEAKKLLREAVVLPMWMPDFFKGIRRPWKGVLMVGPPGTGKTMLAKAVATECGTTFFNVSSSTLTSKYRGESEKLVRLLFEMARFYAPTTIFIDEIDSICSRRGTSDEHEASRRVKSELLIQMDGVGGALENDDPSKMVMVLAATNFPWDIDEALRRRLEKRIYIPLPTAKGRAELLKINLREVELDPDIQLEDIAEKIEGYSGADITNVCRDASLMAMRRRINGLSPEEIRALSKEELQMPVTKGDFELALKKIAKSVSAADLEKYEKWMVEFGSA
UniProt Q15811: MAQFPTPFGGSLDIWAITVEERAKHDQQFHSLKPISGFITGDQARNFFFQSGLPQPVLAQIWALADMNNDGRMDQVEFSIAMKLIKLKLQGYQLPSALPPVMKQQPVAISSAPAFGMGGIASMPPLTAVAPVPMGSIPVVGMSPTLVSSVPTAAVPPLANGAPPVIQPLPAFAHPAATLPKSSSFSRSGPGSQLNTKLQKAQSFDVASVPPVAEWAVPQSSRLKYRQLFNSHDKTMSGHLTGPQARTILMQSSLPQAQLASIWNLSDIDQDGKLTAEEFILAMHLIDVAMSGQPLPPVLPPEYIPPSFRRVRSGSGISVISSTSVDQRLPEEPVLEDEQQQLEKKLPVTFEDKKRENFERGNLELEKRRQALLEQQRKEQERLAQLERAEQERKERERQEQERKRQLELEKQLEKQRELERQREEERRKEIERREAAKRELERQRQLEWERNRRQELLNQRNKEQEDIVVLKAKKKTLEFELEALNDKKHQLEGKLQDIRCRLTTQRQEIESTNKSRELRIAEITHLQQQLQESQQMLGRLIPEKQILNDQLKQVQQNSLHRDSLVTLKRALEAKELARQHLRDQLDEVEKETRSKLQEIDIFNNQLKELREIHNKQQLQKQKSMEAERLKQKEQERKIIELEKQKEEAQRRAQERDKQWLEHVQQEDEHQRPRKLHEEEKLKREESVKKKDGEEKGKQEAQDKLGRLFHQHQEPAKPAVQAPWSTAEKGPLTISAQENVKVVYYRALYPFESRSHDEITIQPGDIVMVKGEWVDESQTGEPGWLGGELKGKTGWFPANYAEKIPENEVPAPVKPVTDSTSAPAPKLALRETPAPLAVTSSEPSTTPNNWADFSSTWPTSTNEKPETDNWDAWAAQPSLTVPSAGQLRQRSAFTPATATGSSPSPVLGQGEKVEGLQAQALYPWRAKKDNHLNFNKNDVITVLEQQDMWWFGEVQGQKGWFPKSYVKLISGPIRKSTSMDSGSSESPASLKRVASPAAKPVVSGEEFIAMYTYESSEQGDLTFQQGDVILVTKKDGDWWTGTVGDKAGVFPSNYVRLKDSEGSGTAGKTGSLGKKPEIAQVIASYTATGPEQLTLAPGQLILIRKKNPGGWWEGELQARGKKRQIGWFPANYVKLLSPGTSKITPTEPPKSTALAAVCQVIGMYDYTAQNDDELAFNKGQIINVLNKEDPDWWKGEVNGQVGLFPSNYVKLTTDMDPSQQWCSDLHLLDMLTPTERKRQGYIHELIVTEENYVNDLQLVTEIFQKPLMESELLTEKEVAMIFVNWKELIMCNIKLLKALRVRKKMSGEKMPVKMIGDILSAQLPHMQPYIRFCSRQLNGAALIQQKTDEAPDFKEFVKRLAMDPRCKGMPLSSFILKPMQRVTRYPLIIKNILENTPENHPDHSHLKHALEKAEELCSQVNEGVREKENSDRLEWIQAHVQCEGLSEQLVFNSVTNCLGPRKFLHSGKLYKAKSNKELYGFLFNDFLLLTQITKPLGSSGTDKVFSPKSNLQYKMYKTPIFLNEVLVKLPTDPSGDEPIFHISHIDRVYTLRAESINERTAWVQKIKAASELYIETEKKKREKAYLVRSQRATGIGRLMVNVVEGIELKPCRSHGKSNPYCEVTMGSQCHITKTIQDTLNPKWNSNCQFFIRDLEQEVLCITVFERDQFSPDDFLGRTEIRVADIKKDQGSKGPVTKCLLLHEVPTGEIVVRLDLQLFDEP
UniProt Q6PID8: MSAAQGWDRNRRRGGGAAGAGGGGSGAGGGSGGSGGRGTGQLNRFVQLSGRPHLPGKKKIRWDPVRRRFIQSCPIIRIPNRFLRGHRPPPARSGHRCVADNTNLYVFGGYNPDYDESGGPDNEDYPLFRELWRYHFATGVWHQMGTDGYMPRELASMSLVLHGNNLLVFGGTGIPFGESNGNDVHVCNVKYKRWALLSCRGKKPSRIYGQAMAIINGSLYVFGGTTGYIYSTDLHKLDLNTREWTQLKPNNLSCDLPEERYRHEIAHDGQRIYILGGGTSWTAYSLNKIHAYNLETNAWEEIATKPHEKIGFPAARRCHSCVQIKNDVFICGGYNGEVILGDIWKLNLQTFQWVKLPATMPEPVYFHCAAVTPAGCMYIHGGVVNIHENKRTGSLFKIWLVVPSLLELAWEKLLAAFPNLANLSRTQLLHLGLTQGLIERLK
UniProt Q2M2Z5: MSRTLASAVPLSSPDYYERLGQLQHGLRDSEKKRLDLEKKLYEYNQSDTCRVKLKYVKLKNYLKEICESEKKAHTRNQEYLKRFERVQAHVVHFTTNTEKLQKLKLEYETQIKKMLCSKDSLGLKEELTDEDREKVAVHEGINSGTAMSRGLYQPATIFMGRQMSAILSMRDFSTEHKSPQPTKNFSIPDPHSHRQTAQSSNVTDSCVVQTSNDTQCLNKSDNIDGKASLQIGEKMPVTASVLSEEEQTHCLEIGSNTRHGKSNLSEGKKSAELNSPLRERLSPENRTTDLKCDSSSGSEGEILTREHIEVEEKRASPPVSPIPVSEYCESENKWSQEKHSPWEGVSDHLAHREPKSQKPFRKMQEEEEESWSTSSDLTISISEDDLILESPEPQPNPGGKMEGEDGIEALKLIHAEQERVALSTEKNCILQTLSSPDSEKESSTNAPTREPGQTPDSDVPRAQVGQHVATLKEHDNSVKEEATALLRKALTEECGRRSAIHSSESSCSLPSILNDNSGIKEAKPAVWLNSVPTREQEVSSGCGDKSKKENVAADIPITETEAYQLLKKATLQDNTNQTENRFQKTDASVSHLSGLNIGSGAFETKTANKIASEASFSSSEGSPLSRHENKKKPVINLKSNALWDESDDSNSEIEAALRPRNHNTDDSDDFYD
UniProt Q9P2K6: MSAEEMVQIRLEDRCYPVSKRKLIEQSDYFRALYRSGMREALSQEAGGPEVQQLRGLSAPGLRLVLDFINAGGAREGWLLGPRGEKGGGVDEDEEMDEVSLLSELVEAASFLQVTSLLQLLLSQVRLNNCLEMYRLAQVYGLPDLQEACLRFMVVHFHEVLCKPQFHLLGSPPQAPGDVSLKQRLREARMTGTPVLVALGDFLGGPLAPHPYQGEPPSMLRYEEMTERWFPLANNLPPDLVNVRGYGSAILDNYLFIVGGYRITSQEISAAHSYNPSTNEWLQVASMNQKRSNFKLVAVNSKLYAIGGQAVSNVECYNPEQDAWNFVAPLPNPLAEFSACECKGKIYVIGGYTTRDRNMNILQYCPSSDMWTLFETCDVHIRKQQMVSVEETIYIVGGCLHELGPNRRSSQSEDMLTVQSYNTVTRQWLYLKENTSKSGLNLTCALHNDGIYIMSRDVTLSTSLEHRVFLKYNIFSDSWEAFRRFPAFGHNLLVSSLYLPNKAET
UniProt Q6P597: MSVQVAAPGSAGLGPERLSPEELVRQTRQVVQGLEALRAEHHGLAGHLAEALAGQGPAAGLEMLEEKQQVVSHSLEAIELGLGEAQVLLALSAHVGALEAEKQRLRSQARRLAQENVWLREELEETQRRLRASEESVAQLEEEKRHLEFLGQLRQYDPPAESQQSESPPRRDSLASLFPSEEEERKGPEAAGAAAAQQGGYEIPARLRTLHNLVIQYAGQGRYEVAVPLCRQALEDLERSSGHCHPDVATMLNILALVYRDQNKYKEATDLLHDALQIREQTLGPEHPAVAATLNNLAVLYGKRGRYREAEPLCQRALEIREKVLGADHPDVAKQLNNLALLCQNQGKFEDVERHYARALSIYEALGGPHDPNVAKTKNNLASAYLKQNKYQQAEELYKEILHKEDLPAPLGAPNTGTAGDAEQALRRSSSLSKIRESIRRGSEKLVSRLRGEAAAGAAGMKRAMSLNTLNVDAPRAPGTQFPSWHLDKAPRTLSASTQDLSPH
UniProt Q96S16: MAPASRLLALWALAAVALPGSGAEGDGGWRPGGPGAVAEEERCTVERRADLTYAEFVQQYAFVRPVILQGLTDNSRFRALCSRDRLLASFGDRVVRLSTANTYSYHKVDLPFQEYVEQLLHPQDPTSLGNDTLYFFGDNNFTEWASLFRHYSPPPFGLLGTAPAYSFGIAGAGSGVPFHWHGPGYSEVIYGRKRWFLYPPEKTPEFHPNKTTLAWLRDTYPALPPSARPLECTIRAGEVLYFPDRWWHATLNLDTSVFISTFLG
UniProt Q15053: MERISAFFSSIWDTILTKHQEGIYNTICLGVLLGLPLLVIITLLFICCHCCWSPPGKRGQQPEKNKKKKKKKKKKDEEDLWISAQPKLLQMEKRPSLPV
UniProt Q9BW19: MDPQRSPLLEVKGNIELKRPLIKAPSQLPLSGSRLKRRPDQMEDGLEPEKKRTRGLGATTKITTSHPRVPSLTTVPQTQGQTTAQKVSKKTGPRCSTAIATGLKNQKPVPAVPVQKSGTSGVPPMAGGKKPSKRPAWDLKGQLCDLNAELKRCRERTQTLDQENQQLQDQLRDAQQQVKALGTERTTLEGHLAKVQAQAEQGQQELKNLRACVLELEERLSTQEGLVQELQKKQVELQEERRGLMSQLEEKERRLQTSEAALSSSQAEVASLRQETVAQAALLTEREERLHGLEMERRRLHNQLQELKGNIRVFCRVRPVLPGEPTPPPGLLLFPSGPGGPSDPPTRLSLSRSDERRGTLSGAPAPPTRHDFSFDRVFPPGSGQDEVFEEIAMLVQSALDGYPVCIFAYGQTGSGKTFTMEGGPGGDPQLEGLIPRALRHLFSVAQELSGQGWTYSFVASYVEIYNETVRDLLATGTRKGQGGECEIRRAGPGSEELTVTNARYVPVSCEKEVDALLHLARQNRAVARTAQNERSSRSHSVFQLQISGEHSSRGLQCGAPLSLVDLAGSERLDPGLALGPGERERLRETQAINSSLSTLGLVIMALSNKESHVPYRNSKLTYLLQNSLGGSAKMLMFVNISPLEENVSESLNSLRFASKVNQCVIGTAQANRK
UniProt Q8N4N3: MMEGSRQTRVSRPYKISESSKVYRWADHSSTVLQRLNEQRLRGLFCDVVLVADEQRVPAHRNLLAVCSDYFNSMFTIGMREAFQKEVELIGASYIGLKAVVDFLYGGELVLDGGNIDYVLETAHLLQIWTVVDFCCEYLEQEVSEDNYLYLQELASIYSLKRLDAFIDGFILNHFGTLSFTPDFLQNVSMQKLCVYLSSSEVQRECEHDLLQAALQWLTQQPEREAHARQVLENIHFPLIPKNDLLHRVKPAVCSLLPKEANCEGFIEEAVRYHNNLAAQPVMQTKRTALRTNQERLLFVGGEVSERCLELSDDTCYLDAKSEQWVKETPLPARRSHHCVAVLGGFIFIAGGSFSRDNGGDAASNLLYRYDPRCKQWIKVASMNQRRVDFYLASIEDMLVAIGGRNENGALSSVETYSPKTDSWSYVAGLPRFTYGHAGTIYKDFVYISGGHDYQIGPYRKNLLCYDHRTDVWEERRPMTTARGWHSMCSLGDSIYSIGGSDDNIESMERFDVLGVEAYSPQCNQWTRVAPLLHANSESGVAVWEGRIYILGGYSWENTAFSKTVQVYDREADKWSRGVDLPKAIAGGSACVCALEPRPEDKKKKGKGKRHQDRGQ

compound: Cn1cncc1[C@@](N)(c1ccc(Cl)cc1)c1ccc2c(c1)c(-c1cccc(Cl)c1)cc(=O)n2C [tipifarnib]; experiment: log2 fold change, soluble protein after heating vs DMSO (PISA); higher = thermal stabilisation; K562 cells, 10 uM, 30 min; active = over 0.2 and 3.5 SD of the protein, either way, in both replicates (recomputed)
Summary of the method: (§1)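 Soluble protein was defined as the supernatant after 21,000xg for 90 min. It came from K562 cells at 2×10^6 cells/mL given 10 μM compound for 30 min, heated in aliquots for 3 min across 48°C-58°C, pooled, and extracted in PBS with 0.5% NP-40 at 4°C, and was quantified by TMTpro 16plex LC-MS/MS with equalised channel sums. Thermal stability against control samples, from duplicates, is reported as log2 fold change.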

Target | log2 fold change
KATNBL1 (UniProt Q9H079) | inactive: 0.115
KLHL20 (UniProt Q9Y2M5) | inactive: 0.041
KATNAL1 (UniProt Q9BW62) | inactive: -0.133
ITSN1 (UniProt Q15811) | inactive: 0.062
KIAA0754 (UniProt O94854) | inactive: 0.145
KLHDC10 (UniProt Q6PID8) | inactive: 0.063
KIZ (UniProt Q2M2Z5) | inactive: 0.217
KCNH2 (UniProt Q12809) | inactive: -0.226
KLHL42 (UniProt Q9P2K6) | inactive: 0.069
KLC3 isoform 3 (UniProt Q6P597) | inactive: -0.168
KDM6A (UniProt O15550) | inactive: 0.038
JMJD8 (UniProt Q96S16) | inactive: 0.038
KIF14 (UniProt Q15058) | inactive: -0.028

compound: FC(F)(F)c1ccc(/C=C/c2nc(COc3ccc(CCCCn4ccnn4)cc3)co2)cc1 [mubritinib]; experiment: as above
Summary of the method: as §1

Target | log2 fold change
KATNBL1 (UniProt Q9H079) | inactive: -0.032
KIAA0040 (UniProt Q15053) | inactive: -0.016
KLHL20 (UniProt Q9Y2M5) | inactive: 0.1
ITSN1 (UniProt Q15811) | inactive: 0.103
KCNH2 (UniProt Q12809) | inactive: -0.125
KIFC1 (UniProt Q9BW19) | inactive: 0.404
KNL1 (UniProt Q8NG31) | inactive: 0.202
KRT10, A0A1B0GVI3 | inactive: -0.097
KLHL36 (UniProt Q8N4N3) | inactive: 0.094
KIF1B isoform 3 (UniProt O60333) | inactive: 0.168
JMJD8 (UniProt Q96S16) | inactive: -0.136
KIF14 (UniProt Q15058) | inactive: 0.009
